This passage reports AUC results from patent publication US20090306228A1, “ACTIVE AGENT DELIVERY SYSTEMS AND METHODS FOR PROTECTING AND ADMINISTERING ACTIVE AGENTS” (priority 2000, published 2009).

The series in a line: in vivo. The note with it: female, Sprague Dawley, rat, po.

As usually defined, the AUC is concentration integrated over time. A lower AUC goes with low exposure.

The molecule `NS(=O)(=O)c1cc(C(=O)O)c(NCc2ccco2)cc1Cl` [Furosemide] registered an AUC of 21200 ng·h/mL.
